No constants are given. Whether binding was seen depends on the method and setting. In cells and extracts the contact can be indirect. Binding calls can cover weak binding; strength is not graded here. Tags and fused reporters may be left off the sequences shown.

The test concerns the target T1, PfFBOX01-HA (P. falciparum) (UniProt C6KT37).
T1 sequence: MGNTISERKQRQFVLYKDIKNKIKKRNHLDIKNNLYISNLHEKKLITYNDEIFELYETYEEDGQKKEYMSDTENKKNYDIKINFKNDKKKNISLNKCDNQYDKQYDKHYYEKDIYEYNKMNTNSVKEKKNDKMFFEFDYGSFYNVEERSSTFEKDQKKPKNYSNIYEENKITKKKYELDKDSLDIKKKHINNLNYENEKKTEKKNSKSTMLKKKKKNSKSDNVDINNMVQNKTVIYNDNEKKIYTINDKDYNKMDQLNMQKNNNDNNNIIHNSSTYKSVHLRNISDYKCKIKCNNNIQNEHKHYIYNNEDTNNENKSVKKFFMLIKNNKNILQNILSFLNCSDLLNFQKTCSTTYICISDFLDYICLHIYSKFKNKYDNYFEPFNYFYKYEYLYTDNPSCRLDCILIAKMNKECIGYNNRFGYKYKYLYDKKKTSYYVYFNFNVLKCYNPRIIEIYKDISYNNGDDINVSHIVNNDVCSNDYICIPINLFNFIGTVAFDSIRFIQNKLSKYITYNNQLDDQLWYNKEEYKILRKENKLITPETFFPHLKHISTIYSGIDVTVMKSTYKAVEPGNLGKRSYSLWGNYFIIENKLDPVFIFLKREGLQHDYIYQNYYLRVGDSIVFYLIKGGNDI
Nature of the test: co-IP; immunoprecipitation of PfFBOX01-HA from schizonts that also carry a C-terminally FLAG-tagged candidate substrate; immunoblot (Fig. S5 and S13). In general terms: Immunoblotting shows a protein as a band on a membrane.

On to “PF3D7_0903600.1 tagged at the C-terminus with FLAG epitopes (P. falciparum)”, for which the binding result is on record as “binds”.
